Experiments:
[1] = The logarithm of the reciprocal of the concentration which produces 50% inhibition of mammalian alpha DNA polymerase.
Method in brief: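 Mammalian α or β DNA polymerase in 100 µL reaction: enzyme in 50% glycerol, 1 mM DTT, 0.5 M KCl, Tris-HCl pH 7.5; Me2SO compound; cocktail with MnCl2, NaF, [3H]dGTP, poly(2'-O-methylC)·d(pG)12-18 template. Compound added first, then enzyme, then cocktail; 45 min at 37 °C. Product radioactivity, background-corrected against Me2SO controls; 50% concentration from triplicate five-dose curves, 10^-3–10^-7 M, expressed as log(1/C).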

[2] = Partition coefficient (logP); conditions: octanol/water

Molecule `COC1/C=C/OC2(C)Oc3c(C)c(O)c4c(O)c(c(/C=N/N5CCN(C)CC5)cc4c3C2=O)NC(=O)/C(C)=C\C=C\C(C)C(O)C(C)C(O)C(C)C(OC(C)=O)C1C` (configuration not stated) has a Log 1/C [1] of 3.47 and a logP [2] of 1.29.
